Experimental data: US20150056133A1
Results are given in words; binding and its absence hold for the method and conditions named. Binding can be weak; no strength is given.

B1: 99mTc-CX3CR1BII18E06 (VHH)
VHH: KVQLVESGGGLVQPGGSLRLSCATSGTIFSNNAMGWYRQAPGKKRDLVASISSSGSTNYADSVKGRFTVSRDNDKNTGYLQMNSLKPEDTGVYYCTLDARRGWNTAYWGQGAQVTVSS
modifications: 99mTc-tricarbonyl on the C-terminal hexahistidine tag
B2: 99mTc-CX3CR1BII66B02 (VHH)
VHH: EVQLVESGGGSVQAGESLRLSCAASGSIFSSNAMAWYRQAPGKRRDLVAAINSVGVTKYADSVKGRFTISRDNAKNTVYLQMNSLKPEDTAVYYCTSDPRRGWDTRYWGQGTQVTVSS
modifications: 99mTc-tricarbonyl on the C-terminal hexahistidine tag
B3: 99mTc-CX3CR1BII315 (VHH)
VHH: EVQLVESGGGLVQAGGSLRLSCVASGRTFSSYAMGWFRQAPGKERAFVAGISGSASRKYYADSVKGRFTVSRDNARNTVYLQMNSLKPEDTAVYYCAASNSYPKVQFDYYGQGTQVTVSS
modifications: 99mTc-tricarbonyl on the C-terminal hexahistidine tag
B4: 99mTc-CX3CR1BII316 (VHH)
VHH: EVQLVESGGGSVQAGESLRLSCAASGSIFSSNAMAWYRQAPPGKQRDLVALINSVGITKYADSVKGRFTISSDNAKNTVYLEMNSLKPEDTAVYYCTSDGRRGWDTRYWGQGTQVTVSS
modifications: 99mTc-tricarbonyl on the C-terminal hexahistidine tag
B5: 99mTc-CX3CR1BII317 (VHH)
chain: EVQLVESGGGLVQAGGSLRLSCVASGRTFSSYAMGWFRQAPGKERAFVAGISGSASRKYYADSVKGRFTVSRDNARNTVYLQMNSLKPEDTAVYYCAASNSYPKVQFDYYGQGTLVTVSSGGGGSGGGGSGGGGSGGGGSGGGGSGGGGSGGGGSEVQLVESGGGLVQAGGSLRLSCVASGRTFSSYAMGWFRQAPGKERAFVAGISGSASRKYYADSVKGRFTVSRDNARNTVYLQMNSLKPEDTAVYYCAASNSYPKVQFDYYGQGTLVTVSSAAAEQKLISEEDLNGAAHHHHHH
modifications: 99mTc-tricarbonyl on the C-terminal hexahistidine tag
B6: 99mTc-CX3CR1BII318 (VHH)
chain: EVQLVESGGGSVQAGESLRLSCAASGSIFSSNAMAWYRQAPGKRRDLVAAINSVGVTKYADSVKGRFTISRDNAKNTVYLQMNSLKPEDTAVYYCTSDPRRGWDTRYWGQGTQVTVSSGGGGSGGGGSGGGGSGGGGSGGGGSGGGGSGGGGSEVQLVESGGGSVQAGESLRLSCAASGSIFSSNAMAWYRQAPGKRRDLVAAINSVGVTKYADSVKGRFTISRDNAKNTVYLQMNSLKPEDTAVYYCTSDPRRGWDTRYWGQGTQVTVSSAAAEQKLISEEDLNGAAHHHHHH
modifications: 99mTc-tricarbonyl on the C-terminal hexahistidine tag

Each binder was assayed against human CX3CR1 (human) (assay: radioligand cell binding, 1 nM 99mTc-VHH on CHO-hCX3CR1 vs CHO-WT cells, gamma counting).

binding, binds:
B1
B2
B3
B4
B5
B6
